Experimental findings from paper PMC4339124 are described below.

Amino acid sequences for entries named in this document (tags omitted).
UniProt P31146: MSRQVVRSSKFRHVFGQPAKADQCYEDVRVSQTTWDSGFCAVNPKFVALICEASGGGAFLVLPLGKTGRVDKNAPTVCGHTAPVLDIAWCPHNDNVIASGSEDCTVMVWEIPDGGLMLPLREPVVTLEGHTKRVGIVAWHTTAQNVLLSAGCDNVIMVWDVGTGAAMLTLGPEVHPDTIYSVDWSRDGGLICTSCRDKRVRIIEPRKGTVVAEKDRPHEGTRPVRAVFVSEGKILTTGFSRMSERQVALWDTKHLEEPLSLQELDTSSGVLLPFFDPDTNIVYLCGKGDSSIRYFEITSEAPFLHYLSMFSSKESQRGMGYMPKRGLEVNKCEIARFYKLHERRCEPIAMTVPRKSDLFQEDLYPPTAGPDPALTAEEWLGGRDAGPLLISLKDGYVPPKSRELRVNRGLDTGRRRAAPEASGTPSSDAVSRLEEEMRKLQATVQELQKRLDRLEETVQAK
UniProt Q9NPA3: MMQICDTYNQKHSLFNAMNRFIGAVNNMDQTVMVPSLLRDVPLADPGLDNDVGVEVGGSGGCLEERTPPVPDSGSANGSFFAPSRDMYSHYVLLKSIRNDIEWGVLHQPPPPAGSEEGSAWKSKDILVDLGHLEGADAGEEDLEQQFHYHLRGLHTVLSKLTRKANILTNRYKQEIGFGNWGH

These are yes or no findings as the source states them, for the method shown. In cells and extracts the contact can be indirect. Here binding means that the protein was enriched with, or labelled near, the bait; the list need not be complete. Tags and fused reporters may be left off the sequences shown.

The target in the experiment is T1, THEMIS tagged with One-STrEP-Tag (THEMIS-Strep), wild type (human) (UniProt Q8N1K5).
T1 sequence: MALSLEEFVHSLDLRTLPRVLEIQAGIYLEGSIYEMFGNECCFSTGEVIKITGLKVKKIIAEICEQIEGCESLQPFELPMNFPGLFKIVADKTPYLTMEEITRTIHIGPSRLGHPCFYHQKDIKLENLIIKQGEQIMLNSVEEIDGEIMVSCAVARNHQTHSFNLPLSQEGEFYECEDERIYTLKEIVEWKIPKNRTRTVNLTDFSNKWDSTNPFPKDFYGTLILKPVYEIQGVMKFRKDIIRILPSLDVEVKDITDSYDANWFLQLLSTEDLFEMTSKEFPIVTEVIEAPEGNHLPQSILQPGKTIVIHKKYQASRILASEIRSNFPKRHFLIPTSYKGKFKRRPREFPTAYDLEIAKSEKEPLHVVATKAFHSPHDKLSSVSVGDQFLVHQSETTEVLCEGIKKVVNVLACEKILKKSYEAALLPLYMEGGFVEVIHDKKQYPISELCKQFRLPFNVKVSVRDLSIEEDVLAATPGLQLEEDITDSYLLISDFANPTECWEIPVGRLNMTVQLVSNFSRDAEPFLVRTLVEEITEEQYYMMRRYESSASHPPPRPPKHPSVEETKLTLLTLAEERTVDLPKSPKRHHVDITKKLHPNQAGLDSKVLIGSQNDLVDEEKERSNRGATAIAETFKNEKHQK
As to the kind of experiment: affinity purification with mass spectrometry; THEMIS-Strep expressed in Jurkat cells, resting or anti-CD3 mAb-stimulated; pulled down with Streptactin-Sepharose beads, eluted with biotin, nanoLC-MS/MS; biotin-blocked beads as background.

Regarding “COR1A_HUMAN (coronin-1A), endogenous (from UniProt P31146 1-461)”, the binding result is given as “binds”. Regarding “M1IP1_HUMAN (Mid1-interacting protein 1), endogenous (from UniProt Q9NPA3 1-183)”, the binding result is on record as “binds”.
